Assay results reported in article PMC2710002, “KCNE1 and KCNE3 β-Subunits Regulate Membrane Surface Expression of Kv12.2 K^+ Channels In Vitro and Form a Tripartite Complex In Vivo” (PLoS ONE, 2009).
These are yes or no findings as the source states them, for the method shown. Binding seen in cells or lysates may run through a third protein. Some binding calls cover weakened binding; strength is not graded here.

Sequences of proteins named here, by UniProt entry; tags and fusion partners are left off.
UniProt P23299: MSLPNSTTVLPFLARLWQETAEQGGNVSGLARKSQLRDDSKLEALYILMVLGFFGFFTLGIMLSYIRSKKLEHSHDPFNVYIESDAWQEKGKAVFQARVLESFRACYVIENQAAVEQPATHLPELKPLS

T1: Kv12.2 channel (mouse (endogenous in mouse brain)) (UniProt Q9WVJ0)
T1 sequence: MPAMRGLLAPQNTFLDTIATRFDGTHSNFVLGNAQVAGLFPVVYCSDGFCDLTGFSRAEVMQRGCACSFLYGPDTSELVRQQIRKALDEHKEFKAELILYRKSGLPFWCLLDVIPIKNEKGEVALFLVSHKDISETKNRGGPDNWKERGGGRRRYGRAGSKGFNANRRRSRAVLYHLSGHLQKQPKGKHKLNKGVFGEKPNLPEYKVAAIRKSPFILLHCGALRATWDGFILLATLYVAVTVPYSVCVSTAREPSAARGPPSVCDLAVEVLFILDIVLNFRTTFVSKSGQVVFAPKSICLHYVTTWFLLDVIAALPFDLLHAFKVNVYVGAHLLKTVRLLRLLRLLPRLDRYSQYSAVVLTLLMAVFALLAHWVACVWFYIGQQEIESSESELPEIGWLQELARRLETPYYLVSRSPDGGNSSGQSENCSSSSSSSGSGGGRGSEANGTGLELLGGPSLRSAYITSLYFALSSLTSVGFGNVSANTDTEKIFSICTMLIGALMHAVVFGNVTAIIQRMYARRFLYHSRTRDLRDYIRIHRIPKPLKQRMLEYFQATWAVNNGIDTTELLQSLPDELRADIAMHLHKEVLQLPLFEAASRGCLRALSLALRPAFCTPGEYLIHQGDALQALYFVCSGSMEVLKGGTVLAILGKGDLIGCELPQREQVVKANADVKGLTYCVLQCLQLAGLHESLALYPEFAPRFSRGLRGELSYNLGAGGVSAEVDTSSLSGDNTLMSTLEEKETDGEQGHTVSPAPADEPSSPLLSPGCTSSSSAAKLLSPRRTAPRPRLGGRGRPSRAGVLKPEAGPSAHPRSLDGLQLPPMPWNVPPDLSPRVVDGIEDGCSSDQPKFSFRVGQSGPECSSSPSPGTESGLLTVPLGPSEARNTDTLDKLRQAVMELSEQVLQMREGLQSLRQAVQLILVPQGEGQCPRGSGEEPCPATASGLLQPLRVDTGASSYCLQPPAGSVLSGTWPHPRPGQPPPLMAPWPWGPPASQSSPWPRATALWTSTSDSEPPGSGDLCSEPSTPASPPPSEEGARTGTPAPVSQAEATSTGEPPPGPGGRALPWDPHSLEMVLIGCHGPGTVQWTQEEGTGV

T2: KCNE3 β-subunit (mouse (endogenous in mouse brain)) (UniProt Q9WTW2)
T2 sequence: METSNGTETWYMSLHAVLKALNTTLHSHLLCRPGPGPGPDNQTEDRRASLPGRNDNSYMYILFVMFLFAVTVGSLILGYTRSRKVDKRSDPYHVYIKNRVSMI


Tests used:
[1] = target: T1, Kv12.2 channel (mouse (endogenous in mouse brain)); test: co-IP; adult mouse brain membrane pellet solubilised in IP buffer (50 mM Tris-Cl, 20 mM MgCl2, 150 mM NaCl, 0.5% Igepal, pH 7); antibody covalently conjugated to protein A/G sepharose beads, overnight at 4°C; SDS-PAGE and Western blot
[2] = target: T1, Kv12.2 channel (mouse (endogenous in mouse brain)); test: co-IP; native conditions, two-step: eluate of the first-round IP (anti-KCNE1 or anti-KCNE3) put on a second-round IP with anti-Kv12.2; 4-16% NativePAGE Bis-Tris gel, blot with anti-KCNE1 or anti-KCNE3
[3] = target: T2, KCNE3 β-subunit (mouse (endogenous in mouse brain)); test: co-IP; adult mouse brain membrane pellet solubilised in IP buffer (50 mM Tris-Cl, 20 mM MgCl2, 150 mM NaCl, 0.5% Igepal, pH 7); antibody covalently conjugated to protein A/G sepharose beads, overnight at 4°C; SDS-PAGE and Western blot
[4] = target: KCNE1 β-subunit (mouse (endogenous in mouse brain)) (UniProt P23299); test: as above
[5] = target: T2, KCNE3 β-subunit (mouse (endogenous in mouse brain)); test: co-IP; native conditions, first round: whole mouse brain lysate in NativePAGE sample buffer with 1% digitonin; anti-KCNE1 or anti-KCNE3 on protein A/G sepharose column, overnight at 4°C; 4-16% NativePAGE Bis-Tris gel, blot with anti-Kv12.2
[6] = target: KCNE1 β-subunit (mouse (endogenous in mouse brain)) (UniProt P23299); test: as above

binding [1] | binding [2] | binding [3] | binding [4] | binding [5] | binding [6] | Molecule
binds | binds |  |  |  |  | KCNE1 β-subunit (from UniProt P23299 1-129)
 |  | binds | binds | binds | binds | Kv12.2 channel (natural protein, mouse (endogenous in mouse brain), UniProt Q9WVJ0 1-1095, looked up, Kv12.2 (ELK2, KCNH3) voltage-gated potassium channel alpha subunit, mouse, endogenous in brain; about 120 kDa monomer on a denaturing gel, about 500 kDa complex on a native gel; also called ELK2; KCNH3; source: endogenous, mouse brain membrane lysate (0.5% Igepal) or whole mouse brain lysate (1% digitonin)) MPAMRGLLAPQNTFLDTIATRFDGTHSNFVLGNAQVAGLFPVVYCSDGFCDLTGFSRAEVMQRGCACSFLYGPDTSELVRQQIRKALDEHKEFKAELILYRKSGLPFWCLLDVIPIKNEKGEVALFLVSHKDISETKNRGGPDNWKERGGGRRRYGRAGSKGFNANRRRSRAVLYHLSGHLQKQPKGKHKLNKGVFGEKPNLPEYKVAAIRKSPFILLHCGALRATWDGFILLATLYVAVTVPYSVCVSTAREPSAARGPPSVCDLAVEVLFILDIVLNFRTTFVSKSGQVVFAPKSICLHYVTTWFLLDVIAALPFDLLHAFKVNVYVGAHLLKTVRLLRLLRLLPRLDRYSQYSAVVLTLLMAVFALLAHWVACVWFYIGQQEIESSESELPEIGWLQELARRLETPYYLVSRSPDGGNSSGQSENCSSSSSSSGSGGGRGSEANGTGLELLGGPSLRSAYITSLYFALSSLTSVGFGNVSANTDTEKIFSICTMLIGALMHAVVFGNVTAIIQRMYARRFLYHSRTRDLRDYIRIHRIPKPLKQRMLEYFQATWAVNNGIDTTELLQSLPDELRADIAMHLHKEVLQLPLFEAASRGCLRALSLALRPAFCTPGEYLIHQGDALQALYFVCSGSMEVLKGGTVLAILGKGDLIGCELPQREQVVKANADVKGLTYCVLQCLQLAGLHESLALYPEFAPRFSRGLRGELSYNLGAGGVSAEVDTSSLSGDNTLMSTLEEKETDGEQGHTVSPAPADEPSSPLLSPGCTSSSSAAKLLSPRRTAPRPRLGGRGRPSRAGVLKPEAGPSAHPRSLDGLQLPPMPWNVPPDLSPRVVDGIEDGCSSDQPKFSFRVGQSGPECSSSPSPGTESGLLTVPLGPSEARNTDTLDKLRQAVMELSEQVLQMREGLQSLRQAVQLILVPQGEGQCPRGSGEEPCPATASGLLQPLRVDTGASSYCLQPPAGSVLSGTWPHPRPGQPPPLMAPWPWGPPASQSSPWPRATALWTSTSDSEPPGSGDLCSEPSTPASPPPSEEGARTGTPAPVSQAEATSTGEPPPGPGGRALPWDPHSLEMVLIGCHGPGTVQWTQEEGTGV
binds | binds |  |  |  |  | KCNE3 β-subunit (protein, UniProt Q9WTW2 1-103) METSNGTETWYMSLHAVLKALNTTLHSHLLCRPGPGPGPDNQTEDRRASLPGRNDNSYMYILFVMFLFAVTVGSLILGYTRSRKVDKRSDPYHVYIKNRVSMI
